Data reported in publication PMC8011160.
These are yes or no findings as the source states them, for the method shown.

By UniProt entry, the sequences of proteins in these tests, tags left out. Residues count along the entry.
UniProt P04985, residues 27-747: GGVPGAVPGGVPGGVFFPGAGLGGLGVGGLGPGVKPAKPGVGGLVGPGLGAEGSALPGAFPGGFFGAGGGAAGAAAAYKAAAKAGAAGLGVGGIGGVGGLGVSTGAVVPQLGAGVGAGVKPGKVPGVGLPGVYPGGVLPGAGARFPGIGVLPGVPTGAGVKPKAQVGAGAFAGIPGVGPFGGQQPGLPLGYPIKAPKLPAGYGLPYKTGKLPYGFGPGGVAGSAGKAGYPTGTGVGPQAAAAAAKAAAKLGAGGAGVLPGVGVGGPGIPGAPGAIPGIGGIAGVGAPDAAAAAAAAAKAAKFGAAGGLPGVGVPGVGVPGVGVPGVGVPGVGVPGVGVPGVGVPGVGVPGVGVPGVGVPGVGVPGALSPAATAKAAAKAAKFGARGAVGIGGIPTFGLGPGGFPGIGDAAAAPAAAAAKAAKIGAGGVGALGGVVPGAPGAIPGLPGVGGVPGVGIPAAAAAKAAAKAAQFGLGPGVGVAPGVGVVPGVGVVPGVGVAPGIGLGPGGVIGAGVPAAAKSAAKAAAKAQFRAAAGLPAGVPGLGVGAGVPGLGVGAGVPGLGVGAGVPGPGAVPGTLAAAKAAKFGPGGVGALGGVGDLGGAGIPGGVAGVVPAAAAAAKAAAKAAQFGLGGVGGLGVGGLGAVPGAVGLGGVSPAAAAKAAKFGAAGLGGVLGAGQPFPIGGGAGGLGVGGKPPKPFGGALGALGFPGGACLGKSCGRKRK
UniProt P02769, residues 25-607: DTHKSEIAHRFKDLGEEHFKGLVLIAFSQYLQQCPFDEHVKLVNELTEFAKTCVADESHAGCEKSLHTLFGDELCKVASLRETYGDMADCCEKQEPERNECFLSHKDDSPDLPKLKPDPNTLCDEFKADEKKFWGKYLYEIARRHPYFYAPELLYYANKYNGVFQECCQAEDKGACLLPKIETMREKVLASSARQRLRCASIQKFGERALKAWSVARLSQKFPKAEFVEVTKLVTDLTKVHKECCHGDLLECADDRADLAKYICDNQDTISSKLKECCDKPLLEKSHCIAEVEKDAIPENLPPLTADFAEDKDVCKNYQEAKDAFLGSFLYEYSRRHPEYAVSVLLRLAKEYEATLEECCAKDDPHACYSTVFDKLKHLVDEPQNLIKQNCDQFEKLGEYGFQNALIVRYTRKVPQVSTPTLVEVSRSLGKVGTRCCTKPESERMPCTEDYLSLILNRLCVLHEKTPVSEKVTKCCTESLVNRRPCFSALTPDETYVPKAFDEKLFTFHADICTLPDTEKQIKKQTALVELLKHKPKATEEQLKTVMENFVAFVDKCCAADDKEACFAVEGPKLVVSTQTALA

Target: elastin (purified from bovine neck ligament) (bovine) (UniProt P04985)
Experiment: co-sedimentation; 0.5, 1, 5 and 10 mg insoluble elastin mixed with 40 μg protein in 400 μl PBS, 60 min at 4 °C; centrifuged 20 min at 18,000 x g; supernatant (unbound) and washed pellet (bound) on 12% SDS-PAGE; both purified

binding: no binding (tested: 40 μg in 400 μl)
Substance: Bovine serum albumin (BSA) (from UniProt P02769 25-607)
